These are yes or no findings as the source states them, for the method shown. Binding seen in cells or lysates may run through a third protein.
Biological target: HA-tagged rhoptry protein TGME49_202200 (Toxoplasma gondii)
Test: co-IP

B1: Complement Component 1q Binding Protein (C1QBP), mouse (protein, UniProt O35658 71-278)
chain: LHTEGDKAFVEFLTDEIKEEKKIQKHKSLPKMSGDWELEVNGTEAKLLRKVAGEKITVTFNINNSIPPTFDGEEEPSQGQKAEEQEPERTSTPNFVVEVTKTDGKKTLVLDCHYPEDEIGHEDEAESDIFSIKEVSFQATGDSEWRDTNYTLNTDSLDWALYDHLMDFLADRGVDNTFADELVELSTALEHQEYITFLEDLKSFVKNQ
- binding: no binding
